This passage reports binding results from publication PMC6408466, “Inner lumen proteins stabilize doublet microtubules in cilia and flagella” (Nature Communications, 2019).

These are yes or no findings as the source states them, for the method shown. In cells and extracts the contact can be indirect. Binding can be weak; no strength is given. Sequences can lack the tags named with a protein.

For the test, the target named is T1, FAP45 (flagellar-associated protein 45) (Chlamydomonas (endogenous in wild type axonemes)) (UniProt A8I9E8).
T1 sequence: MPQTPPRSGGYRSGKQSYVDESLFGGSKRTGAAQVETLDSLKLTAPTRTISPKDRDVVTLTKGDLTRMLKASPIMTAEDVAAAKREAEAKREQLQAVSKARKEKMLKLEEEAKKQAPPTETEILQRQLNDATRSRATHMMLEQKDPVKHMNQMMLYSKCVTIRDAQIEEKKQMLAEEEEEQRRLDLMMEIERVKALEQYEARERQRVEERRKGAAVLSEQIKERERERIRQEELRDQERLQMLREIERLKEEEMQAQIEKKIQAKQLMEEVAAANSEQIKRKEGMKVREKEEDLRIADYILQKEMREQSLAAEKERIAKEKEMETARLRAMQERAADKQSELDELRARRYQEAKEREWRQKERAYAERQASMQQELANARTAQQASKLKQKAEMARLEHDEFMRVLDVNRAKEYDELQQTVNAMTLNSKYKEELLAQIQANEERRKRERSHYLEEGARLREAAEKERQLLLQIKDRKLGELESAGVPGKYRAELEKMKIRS
Description: cross-linking; isolated axonemes treated with EDC (zero-length crosslinker) in HMEK (30 mM Hepes-KOH pH 7.4, 5 mM MgSO4, 1 mM EGTA, 50 mM K-acetate), 60 min, room temperature; SDS-PAGE and western blot with anti-FAP45 and anti-FAP52 antibodies; wild type compared with fap45 and fap52 axonemes.

For tubulin, the binding entry is listed as “binds”.
